No constants are given. Whether binding was seen depends on the method and setting. In cells and extracts the contact can be indirect. Binding calls can cover weak binding; strength is not graded here.
Biological target: Δ3–9 dystrophin (internally truncated dystrophin, in-frame deletion of DMD exons 3–9) (human (endogenous in hiPSC-CMs)) (UniProt P11532)
Assay: co-IP; mouse anti-human dystrophin antibody (sc-73592) coupled to Dynabeads M-270 epoxy; lysate of day 48 hiPSC-CMs in extraction buffer (25 mM NaCl), overnight at 4°C; western blot of the IP samples, signal intensity ratio of each protein to dystrophin

By UniProt entry, the sequences of proteins in these tests, tags left out.
UniProt O75112: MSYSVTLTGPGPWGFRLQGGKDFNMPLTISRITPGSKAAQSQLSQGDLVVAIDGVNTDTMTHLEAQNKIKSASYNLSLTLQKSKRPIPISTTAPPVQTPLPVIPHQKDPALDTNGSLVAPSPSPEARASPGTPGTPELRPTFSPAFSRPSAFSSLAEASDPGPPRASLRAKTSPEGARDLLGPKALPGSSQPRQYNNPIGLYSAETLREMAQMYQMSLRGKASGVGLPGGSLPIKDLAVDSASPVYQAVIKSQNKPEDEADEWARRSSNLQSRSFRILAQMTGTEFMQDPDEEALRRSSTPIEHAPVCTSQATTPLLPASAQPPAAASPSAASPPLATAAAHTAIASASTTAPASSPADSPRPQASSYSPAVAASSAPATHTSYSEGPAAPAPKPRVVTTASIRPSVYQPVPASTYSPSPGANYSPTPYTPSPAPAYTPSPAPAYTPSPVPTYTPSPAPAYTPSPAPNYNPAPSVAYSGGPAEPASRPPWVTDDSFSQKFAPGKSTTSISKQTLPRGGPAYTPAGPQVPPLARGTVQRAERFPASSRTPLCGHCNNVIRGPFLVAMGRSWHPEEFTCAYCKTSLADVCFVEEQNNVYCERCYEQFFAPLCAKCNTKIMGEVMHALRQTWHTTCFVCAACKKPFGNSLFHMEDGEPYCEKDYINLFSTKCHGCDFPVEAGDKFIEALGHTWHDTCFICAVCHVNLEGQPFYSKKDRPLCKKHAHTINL

Molecule | binding
Cypher (from UniProt O75112 1-727) | no binding
cardiac troponin T (cTnT) (from UniProt P45379 1-298) | binds
crystallin alpha B (CRYAB) (protein, UniProt P02511 1-175) MDIAIHHPWIRRPFFPFHSPSRLFDQFFGEHLLESDLFPTSTSLSPFYLRPPSFLRAPSWFDTGLSEMRLEKDRFSVNLDVKHFSPEELKVKVLGDVIEVHGKHEERQDEHGFISREFHRKYRIPADVDPLTITSSLSSDGVLTVNGPRKQVSGPERTIPITREEKPAVTAAPKK | no binding

The remaining lines, values ahead:

binding | Molecule
binds | AHNAK1 (from UniProt Q09666 1-5890)
binds | desmin (from UniProt P17661 1-470)
